Assay results published in US20200055901A1 (BETH ISRAEL DEACONESS MEDICAL CENTER, published 2020).

Target: T1, Soluble two-domain CD4 (UniProt P01730 26-208)
T1 construct: domain: soluble two-domain CD4; Immobilized on a CM5 chip (1,000 RU) by amine coupling; also called soluble CD4
Assay: SPR (Biacore 3000), single-cycle kinetics; CD4 immobilised on a CM5 chip (1,000 RU), gp140 flowed at 62.5 to 1000 nM

B1: HIV-1 Env 459C wild type gp140 (459C WT gp140Fd trimer) (other)
chain: SASVGNLWVTVYYGVPVWREAKTTLFCASDAKAYDREVHNVWATHACVPTDPNPQEIVLENVTENFNMWKNDMVDQMHEDIISLWDQSLKPCVKLTPLCVTLNCTNVTSSAANVTSNVTNDANNASNANGRNVINEDMQNCSFNATTEIRDRKKEMYALFYKLDIVPLDGEKSDNRYRLINCNTSTLTQACPKVSFDPIPIHYCTPAGFAILKCNNKTFNGTGPCNNVSTVQCTHGIKPVVSTQLLLNGSLAEEDIIIRSENLTNNAKTIIVHLNESVEIVCTRPNNNTRKSIRIGPGQTFYANNDIIGDIRQAHCNISEEKWNNTLHRVWKKLVEHFPNKTTIRFDRHSGGDLEITTHSFNCGGEFFYCNTSGLFNITYNSNYTYNDTKHNGTKVITLPCRIKQIINMWQEVGRAMYAPPIAGNITCTSNITGLLLTRDGGNNSTETETFRPGGGDMRDNWRSELYKYKVVEIKPLGIAPTGAKSSVVERAKSAVGIGAVFLGFLGAAGSTMGAASITLTVQARQLLSGIVQQQSNLLKAIEAQQHLLQLTVWGIKQLQTRVLAIERYLKDQQLLGLWGCSAKLICTTAVPWNSSWSNKSETEIWNNMTWMQWDREINNYTNTIYRLLEESQNQQEKNENDLLALDKWNSLWDWFGISNWLWYIRSRIEGRGSGGYIPEAPRDGQAYVRKDGEWVLLSTFLGHHHHHH
notes: Soluble gp140-foldon trimer with His-tag, made in 293T cells; also called WT 459C; wild type 459C gp140
binding result: binds
